PubChem BioAssay AID504784, Drosophila RNAi Screening Center | 2011

Test: 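Genome-wide knock-down for genes giving too much or too little stored lipid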 (primary screen)
Cell system: Drosophila Kc167 embryonic cells
Knock-down reagent: long dsRNA against Drosophila genes, about 250 ng dsRNA per well
Time to read-out: 4 days
Treatment: cells fed 400 µM oleic acid bound to BSA
Measurement: 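Cells imaged and segmented; ratio of lipid droplet area to nuclear area, log-transformed, then normalised as a B-score over the screen; higher means more stored lipid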
Scale: droplet/nuclear area B-score: higher = more stored lipid (overstorage)
The deposit covers about 17,000 reagents; shown is an unselected part of those with a known target gene and a result. 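Each column is one replicate's B-score; the combined score over replicates was not deposited, so single values may mislead.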 A plus sign joins genes that one reagent is predicted to hit. Further read-outs or replicates are left out here.

Mer (Merlin) [DRSC20259] | droplet/nuclear area B-score, replicate 1 = -1.31
CG34435 [DRSC18086] | droplet/nuclear area B-score, replicate 1 = -0.0488
CG6126 [DRSC15971] | droplet/nuclear area B-score, replicate 1 = 2.28
CG14406 [DRSC19592] | droplet/nuclear area B-score, replicate 1 = 1.58
fun (retired record) [DRSC12300] | droplet/nuclear area B-score, replicate 1 = 0.203
TAF1C-like [DRSC04073] | droplet/nuclear area B-score, replicate 1 = 0.666
NimB2 (Nimrod B2) [DRSC22645] | droplet/nuclear area B-score, replicate 1 = -0.714
tud (tudor) [DRSC04719] | droplet/nuclear area B-score, replicate 1 = -0.523
pzg (putzig) [DRSC11848] | droplet/nuclear area B-score, replicate 1 = 0.626
CG34286 [DRSC21790] | droplet/nuclear area B-score, replicate 1 = 0.624
CG32847 [DRSC22901] | droplet/nuclear area B-score, replicate 1 = 0.0359
CG31380 [DRSC15688] | droplet/nuclear area B-score, replicate 1 = 0.478
Gr22a (Gustatory receptor 22a) [DRSC22283] | droplet/nuclear area B-score, replicate 1 = 0.096
Sas-6 (Spindle assembly abnormal 6) [DRSC15061] | droplet/nuclear area B-score, replicate 1 = -0.942
CG32413 [DRSC21591] | droplet/nuclear area B-score, replicate 1 = -0.42
ND-19 (NADH dehydrogenase (ubiquinone) 19 kDa subunit) [DRSC04404] | droplet/nuclear area B-score, replicate 1 = 1.33
CG15464 (retired record) [DRSC18047] | droplet/nuclear area B-score, replicate 1 = 0.176
CG15464 (retired record) [DRSC22086] | droplet/nuclear area B-score, replicate 1 = 1.03
Vps33B (Vacuolar protein sorting 33B) [DRSC15722] | droplet/nuclear area B-score, replicate 1 = 0.0635
Fer3HCH (Ferritin 3 heavy chain homologue) [DRSC19892] | droplet/nuclear area B-score, replicate 1 = -0.0176
Ir85a (Ionotropic receptor 85a) [DRSC14382] | droplet/nuclear area B-score, replicate 1 = -0.799
E(spl)malpha-BFM (Enhancer of split malpha, Bearded family member) [DRSC16994] | droplet/nuclear area B-score, replicate 1 = 1.43

Single entries from the list:
CG15464 (retired record) [DRSC18047], droplet/nuclear area B-score, replicate 1 → 0.176
Vps33B (Vacuolar protein sorting 33B) [DRSC15722], droplet/nuclear area B-score, replicate 1 → 0.0635
Result for CG32847 [DRSC22901] under “droplet/nuclear area B-score, replicate 1”: 0.0359
Under “droplet/nuclear area B-score, replicate 1”, CG15464 (retired record) [DRSC22086] shows 1.03
For “droplet/nuclear area B-score, replicate 1”, Ir85a (Ionotropic receptor 85a) [DRSC14382] has -0.799

Next entries:
CG4318 [DRSC19887] | droplet/nuclear area B-score, replicate 1 = 0.841
Sin1 (SAPK-interacting protein 1) [DRSC05965] | droplet/nuclear area B-score, replicate 1 = 0.886
LysRS (Lysyl-tRNA synthetase) [DRSC17824] | droplet/nuclear area B-score, replicate 1 = -0.897
TfIIB (Transcription factor IIB) [DRSC03454] | droplet/nuclear area B-score, replicate 1 = 0.0435
GstD1 (Glutathione S transferase D1) [DRSC16683] | droplet/nuclear area B-score, replicate 1 = -0.532
CG11710 [DRSC20485] | droplet/nuclear area B-score, replicate 1 = -0.207
mRpL14 (mitochondrial ribosomal protein L14) [DRSC18597] | droplet/nuclear area B-score, replicate 1 = -0.49
CG18558 [DRSC00525] | droplet/nuclear area B-score, replicate 1 = -0.347
CG18558 [DRSC21593] | droplet/nuclear area B-score, replicate 1 = -0.391
CG1812 [DRSC20557] | droplet/nuclear area B-score, replicate 1 = -0.882
CG14606 [DRSC12550] | droplet/nuclear area B-score, replicate 1 = 1.46
CG11170 [DRSC04090] | droplet/nuclear area B-score, replicate 1 = 0.0863
CG30392 [DRSC22341] | droplet/nuclear area B-score, replicate 1 = 4.07
CG12061 [DRSC20715] | droplet/nuclear area B-score, replicate 1 = 0.264
cyp33 + CG34194 [DRSC05666] | droplet/nuclear area B-score, replicate 1 = -1.57
CG7695 [DRSC16289] | droplet/nuclear area B-score, replicate 1 = -0.218
Rab9Db + Rab9D + Rab9Fa + 1 more [DRSC17662] | droplet/nuclear area B-score, replicate 1 = 0.234
CG13042 [DRSC09923] | droplet/nuclear area B-score, replicate 1 = -0.0934
